Some of the results follow.
Tests used:
Experiment in all cases: log2 fold change, soluble protein after heating vs DMSO (PISA); higher = thermal stabilisation; K562 cells, 10 uM, 30 min; active = over 0.2 and 3.5 SD of the protein, either way, in both replicates (recomputed)
[1] = compound: CC1=C(C=C(C=C1)NC(=O)C2=CC(=CC=C2)C(C)(C)C#N)NC3=CC4=C(C=C3)N=CN(C4=O)C
Outline: (§1)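 K562 cells at 2×10^6 cells/mL were treated with 10 μM compound for 30 min. Aliquots were heated for 3 min across 48°C-58°C, pooled, and extracted in PBS with 0.5% NP-40 at 4°C; soluble protein was the supernatant after 21,000xg for 90 min. Soluble protein was quantified by TMTpro 16plex LC-MS/MS with channel sums equalised, and reported as log2 fold change in thermal stability against DMSO controls, with values from duplicates.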

Sequences of proteins named here, by UniProt entry; tags and fusion partners are left off. A change or cut given only in a name is not applied to a line headed by its entry.
UniProt Q9NWS8: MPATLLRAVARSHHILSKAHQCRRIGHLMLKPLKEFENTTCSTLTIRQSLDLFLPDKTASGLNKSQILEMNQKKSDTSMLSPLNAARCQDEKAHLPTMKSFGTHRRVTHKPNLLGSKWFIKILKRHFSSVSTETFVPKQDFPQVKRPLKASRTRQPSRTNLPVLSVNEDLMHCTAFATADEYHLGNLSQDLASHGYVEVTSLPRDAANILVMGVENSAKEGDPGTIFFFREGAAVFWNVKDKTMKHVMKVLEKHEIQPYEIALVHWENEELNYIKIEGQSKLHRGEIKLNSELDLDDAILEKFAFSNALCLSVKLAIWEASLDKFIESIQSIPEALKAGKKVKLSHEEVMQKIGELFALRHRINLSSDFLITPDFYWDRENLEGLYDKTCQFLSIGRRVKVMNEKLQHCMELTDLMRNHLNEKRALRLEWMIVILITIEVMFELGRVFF
UniProt O14730: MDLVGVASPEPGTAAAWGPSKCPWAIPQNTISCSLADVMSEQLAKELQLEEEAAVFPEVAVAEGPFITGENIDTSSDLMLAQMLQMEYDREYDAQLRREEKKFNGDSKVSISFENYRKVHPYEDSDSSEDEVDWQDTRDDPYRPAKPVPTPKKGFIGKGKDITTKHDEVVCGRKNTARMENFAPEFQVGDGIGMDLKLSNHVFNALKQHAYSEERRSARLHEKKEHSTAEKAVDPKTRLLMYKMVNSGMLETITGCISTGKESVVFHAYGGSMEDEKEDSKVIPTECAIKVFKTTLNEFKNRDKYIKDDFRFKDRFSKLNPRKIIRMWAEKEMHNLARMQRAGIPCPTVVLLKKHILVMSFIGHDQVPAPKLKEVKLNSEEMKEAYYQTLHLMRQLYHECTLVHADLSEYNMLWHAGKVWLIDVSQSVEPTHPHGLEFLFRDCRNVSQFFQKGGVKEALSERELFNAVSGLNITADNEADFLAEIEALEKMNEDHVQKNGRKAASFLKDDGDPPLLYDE
UniProt Q8IXI2: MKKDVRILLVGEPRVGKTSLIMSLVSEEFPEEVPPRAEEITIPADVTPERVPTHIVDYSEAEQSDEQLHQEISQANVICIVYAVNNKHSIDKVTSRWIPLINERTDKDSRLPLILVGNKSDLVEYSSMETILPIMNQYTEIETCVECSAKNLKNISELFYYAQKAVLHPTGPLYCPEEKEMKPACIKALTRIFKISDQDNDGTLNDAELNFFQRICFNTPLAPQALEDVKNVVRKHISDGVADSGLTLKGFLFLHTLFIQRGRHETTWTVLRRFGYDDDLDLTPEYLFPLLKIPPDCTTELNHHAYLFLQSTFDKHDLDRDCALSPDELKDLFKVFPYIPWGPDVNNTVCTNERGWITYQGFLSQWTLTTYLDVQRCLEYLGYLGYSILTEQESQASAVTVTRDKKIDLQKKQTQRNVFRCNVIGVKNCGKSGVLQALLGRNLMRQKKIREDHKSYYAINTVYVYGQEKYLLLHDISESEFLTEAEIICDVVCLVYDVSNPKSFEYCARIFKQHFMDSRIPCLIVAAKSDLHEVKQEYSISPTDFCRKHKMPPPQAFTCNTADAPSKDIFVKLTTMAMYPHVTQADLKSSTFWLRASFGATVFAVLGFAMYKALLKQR
UniProt Q8TEB9: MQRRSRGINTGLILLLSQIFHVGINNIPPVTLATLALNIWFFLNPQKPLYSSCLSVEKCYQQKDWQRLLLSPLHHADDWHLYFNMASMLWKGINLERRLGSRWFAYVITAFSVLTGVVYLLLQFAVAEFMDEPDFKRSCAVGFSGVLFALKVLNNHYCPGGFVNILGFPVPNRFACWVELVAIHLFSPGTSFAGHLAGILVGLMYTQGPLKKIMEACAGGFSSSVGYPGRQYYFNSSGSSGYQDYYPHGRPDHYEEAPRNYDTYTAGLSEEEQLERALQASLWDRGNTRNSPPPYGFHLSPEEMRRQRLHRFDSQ
UniProt Q96HR9: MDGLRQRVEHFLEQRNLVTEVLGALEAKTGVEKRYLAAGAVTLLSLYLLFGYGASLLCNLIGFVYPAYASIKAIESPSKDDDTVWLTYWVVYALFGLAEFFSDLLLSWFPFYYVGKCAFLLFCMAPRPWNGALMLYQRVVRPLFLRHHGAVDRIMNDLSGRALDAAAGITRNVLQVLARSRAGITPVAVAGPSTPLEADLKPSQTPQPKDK
UniProt A6NED2: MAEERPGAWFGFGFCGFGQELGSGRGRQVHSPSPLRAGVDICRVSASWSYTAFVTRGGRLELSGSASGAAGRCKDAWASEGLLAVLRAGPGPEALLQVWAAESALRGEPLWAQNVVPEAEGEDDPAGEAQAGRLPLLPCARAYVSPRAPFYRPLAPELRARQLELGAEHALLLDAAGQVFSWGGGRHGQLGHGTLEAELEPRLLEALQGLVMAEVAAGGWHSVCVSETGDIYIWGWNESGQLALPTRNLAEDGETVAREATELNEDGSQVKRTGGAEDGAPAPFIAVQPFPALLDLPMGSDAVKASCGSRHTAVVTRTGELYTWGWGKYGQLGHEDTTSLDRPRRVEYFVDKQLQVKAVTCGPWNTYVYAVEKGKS
UniProt Q5VTB9: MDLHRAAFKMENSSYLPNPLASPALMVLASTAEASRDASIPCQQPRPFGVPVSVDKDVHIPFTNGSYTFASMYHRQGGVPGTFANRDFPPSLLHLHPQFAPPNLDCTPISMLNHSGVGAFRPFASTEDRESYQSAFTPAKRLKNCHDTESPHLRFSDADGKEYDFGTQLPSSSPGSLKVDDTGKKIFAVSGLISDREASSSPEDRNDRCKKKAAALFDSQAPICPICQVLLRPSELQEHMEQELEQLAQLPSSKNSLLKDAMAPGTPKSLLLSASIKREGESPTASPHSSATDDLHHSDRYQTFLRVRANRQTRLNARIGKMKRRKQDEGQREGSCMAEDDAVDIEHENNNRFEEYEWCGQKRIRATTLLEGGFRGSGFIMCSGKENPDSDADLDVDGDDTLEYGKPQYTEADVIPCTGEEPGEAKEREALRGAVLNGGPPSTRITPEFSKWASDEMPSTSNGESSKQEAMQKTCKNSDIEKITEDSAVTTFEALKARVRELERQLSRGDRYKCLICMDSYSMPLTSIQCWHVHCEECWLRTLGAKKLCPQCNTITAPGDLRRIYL
UniProt Q8TDP1: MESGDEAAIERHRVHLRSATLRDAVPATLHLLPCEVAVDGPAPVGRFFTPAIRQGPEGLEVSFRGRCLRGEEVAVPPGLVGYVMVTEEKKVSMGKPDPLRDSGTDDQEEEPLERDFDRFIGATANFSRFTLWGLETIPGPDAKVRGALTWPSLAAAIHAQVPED
UniProt O43665: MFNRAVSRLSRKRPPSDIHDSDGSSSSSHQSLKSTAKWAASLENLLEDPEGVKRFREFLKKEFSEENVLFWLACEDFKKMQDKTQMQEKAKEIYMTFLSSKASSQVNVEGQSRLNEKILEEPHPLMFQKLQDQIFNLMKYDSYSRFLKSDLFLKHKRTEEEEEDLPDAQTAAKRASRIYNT
UniProt Q9H871: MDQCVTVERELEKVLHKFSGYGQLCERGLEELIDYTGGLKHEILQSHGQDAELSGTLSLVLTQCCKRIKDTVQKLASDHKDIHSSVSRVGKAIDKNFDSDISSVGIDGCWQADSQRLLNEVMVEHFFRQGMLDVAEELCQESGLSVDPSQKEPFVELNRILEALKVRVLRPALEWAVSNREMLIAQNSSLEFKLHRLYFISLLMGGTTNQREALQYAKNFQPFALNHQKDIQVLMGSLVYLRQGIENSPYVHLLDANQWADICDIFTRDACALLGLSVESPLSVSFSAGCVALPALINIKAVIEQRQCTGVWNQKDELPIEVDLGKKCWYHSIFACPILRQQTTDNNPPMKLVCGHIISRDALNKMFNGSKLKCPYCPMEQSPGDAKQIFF
UniProt Q9Y580: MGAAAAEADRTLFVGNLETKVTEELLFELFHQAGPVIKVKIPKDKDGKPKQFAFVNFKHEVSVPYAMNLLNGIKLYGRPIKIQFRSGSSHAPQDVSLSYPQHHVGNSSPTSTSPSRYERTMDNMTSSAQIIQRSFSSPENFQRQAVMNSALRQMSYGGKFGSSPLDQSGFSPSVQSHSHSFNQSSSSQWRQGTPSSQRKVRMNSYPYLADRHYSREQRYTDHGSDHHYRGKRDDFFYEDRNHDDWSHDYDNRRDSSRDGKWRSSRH
UniProt Q5VTR2, whole entry, looked up: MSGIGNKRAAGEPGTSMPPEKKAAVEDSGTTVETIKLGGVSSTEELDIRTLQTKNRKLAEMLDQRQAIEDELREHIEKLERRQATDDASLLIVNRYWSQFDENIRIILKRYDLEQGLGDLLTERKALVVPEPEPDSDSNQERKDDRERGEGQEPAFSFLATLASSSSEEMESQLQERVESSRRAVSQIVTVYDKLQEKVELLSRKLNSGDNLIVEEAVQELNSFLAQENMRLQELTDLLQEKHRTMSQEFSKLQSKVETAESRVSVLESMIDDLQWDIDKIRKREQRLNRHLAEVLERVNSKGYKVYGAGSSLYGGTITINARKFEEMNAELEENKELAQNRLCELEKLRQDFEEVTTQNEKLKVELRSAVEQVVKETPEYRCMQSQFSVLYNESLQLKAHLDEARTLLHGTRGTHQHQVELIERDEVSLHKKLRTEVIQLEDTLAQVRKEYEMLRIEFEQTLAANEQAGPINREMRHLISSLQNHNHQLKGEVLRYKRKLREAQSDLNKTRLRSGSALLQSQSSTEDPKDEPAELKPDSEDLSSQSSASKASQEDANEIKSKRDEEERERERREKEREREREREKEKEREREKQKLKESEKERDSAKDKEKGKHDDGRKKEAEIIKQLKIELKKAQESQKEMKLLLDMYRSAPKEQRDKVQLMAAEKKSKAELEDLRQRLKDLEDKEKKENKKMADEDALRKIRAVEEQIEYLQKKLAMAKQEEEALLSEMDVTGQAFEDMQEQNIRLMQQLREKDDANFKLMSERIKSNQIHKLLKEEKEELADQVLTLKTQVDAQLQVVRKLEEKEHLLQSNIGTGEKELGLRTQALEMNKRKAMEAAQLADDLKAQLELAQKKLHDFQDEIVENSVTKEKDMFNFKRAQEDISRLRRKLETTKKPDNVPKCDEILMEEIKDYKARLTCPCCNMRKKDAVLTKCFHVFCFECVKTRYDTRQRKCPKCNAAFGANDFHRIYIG
UniProt Q8NC42: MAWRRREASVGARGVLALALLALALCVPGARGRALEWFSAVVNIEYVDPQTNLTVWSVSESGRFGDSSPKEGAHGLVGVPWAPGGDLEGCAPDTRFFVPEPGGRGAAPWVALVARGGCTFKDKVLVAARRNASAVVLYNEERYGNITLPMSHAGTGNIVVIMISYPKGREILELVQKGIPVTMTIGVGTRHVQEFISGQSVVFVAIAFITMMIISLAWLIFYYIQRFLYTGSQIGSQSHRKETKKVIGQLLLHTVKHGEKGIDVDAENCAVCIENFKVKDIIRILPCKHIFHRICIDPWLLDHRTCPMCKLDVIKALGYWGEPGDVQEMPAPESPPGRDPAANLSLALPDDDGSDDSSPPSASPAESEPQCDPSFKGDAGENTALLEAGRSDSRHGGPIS
UniProt Q9H1K0: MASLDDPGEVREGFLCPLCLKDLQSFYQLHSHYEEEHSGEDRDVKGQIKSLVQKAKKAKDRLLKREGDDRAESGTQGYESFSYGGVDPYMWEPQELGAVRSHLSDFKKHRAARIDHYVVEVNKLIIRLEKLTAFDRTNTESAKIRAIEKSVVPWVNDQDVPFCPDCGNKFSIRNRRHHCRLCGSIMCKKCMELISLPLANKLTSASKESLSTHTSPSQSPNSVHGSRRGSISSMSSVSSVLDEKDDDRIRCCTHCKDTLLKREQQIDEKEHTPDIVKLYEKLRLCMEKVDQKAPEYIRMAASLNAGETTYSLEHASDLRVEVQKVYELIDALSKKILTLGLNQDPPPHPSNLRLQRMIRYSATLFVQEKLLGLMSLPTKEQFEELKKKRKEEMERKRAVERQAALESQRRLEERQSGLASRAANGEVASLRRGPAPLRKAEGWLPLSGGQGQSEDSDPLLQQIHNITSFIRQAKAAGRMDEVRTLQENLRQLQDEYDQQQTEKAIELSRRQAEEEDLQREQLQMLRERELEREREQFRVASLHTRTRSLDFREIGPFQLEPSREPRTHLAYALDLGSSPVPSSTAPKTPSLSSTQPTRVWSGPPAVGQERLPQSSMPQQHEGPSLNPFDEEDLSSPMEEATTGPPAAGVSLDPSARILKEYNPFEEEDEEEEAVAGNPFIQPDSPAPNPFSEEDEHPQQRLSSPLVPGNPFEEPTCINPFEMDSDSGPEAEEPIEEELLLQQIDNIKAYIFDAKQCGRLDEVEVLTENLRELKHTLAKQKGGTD
UniProt Q14257: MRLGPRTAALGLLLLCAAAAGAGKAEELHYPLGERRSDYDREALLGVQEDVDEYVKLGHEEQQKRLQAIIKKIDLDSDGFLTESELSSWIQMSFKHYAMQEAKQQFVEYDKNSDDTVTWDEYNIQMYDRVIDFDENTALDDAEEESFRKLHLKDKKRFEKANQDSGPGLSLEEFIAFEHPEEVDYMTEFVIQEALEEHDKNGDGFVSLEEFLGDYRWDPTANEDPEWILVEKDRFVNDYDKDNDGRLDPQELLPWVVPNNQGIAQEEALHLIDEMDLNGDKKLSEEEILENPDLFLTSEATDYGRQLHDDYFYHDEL

[2] = compound: CC1=C(C=C(C=C1)NC(=O)C2=CC(=CC=C2)N(C)C)NC(=O)C3=CC=C(C=C3)O
Outline: as §1

[3] = compound: CC1=CC=C(C=C1)SC2=C3C=C(SC3=CN=C2)C(=O)N
Outline: as §1

[4] = compound: CC1=NC(=CC=C1)C2=C(N=C(N2)C(C)(C)C)C3=CC4=NC=CN=C4C=C3
Outline: as §1

[5] = compound: CCCCN(Cc1ccc(C(=O)NO)cc1)C(=O)Nc1ccccc1 [Nexturastat A]
Outline: as §1

[6] = compound: CCCS(=O)(=O)Nc1ccc(F)c(C(=O)c2c[nH]c3ncc(-c4ccc(Cl)cc4)cc23)c1F [vemurafenib]
Outline: as §1

[7] = compound: CCCS(=O)(=O)Nc1ccc(F)c(C(=O)c2c[nH]c3ncc(Cl)cc23)c1F
Outline: as §1

[8] = compound: CCCc1cc(C)[nH]c(=O)c1CNC(=O)c1cc(-c2ccnc(N3CCN(C)CC3)c2)cc2c1cnn2C(C)C
Outline: as §1

[9] = compound: CCN(CC)Cc1ccc2cc(COC(=O)Nc3ccc(C(=O)NO)cc3)ccc2c1 [givinostat]
Outline: as §1

[10] = compound: CCN(CCCOc1ccc2c(Nc3cc(CC(=O)Nc4cccc(F)c4)[nH]n3)ncnc2c1)CCOP(=O)(O)O [barasertib]
Outline: as §1

Measured: log2 fold change

RMND1 (UniProt Q9NWS8)
inactive: [1] -0.002 | [2] 0.026 | [3] -0.025 | [4] 0.024 | [5] -0.014 | [6] -0.039 | [7] 0.034 | [8] 0.103 | [9] -0.023 | [10] 0.051

RFESD isoform 2 (UniProt Q8TAC1)
inactive: [1] -0.042 | [2] -0.012 | [3] -0.075 | [4] 0 | [5] 0.014 | [6] 0.001 | [7] -0.028 | [8] -0.008 | [9] -0.174 | [10] -0.012

RCC1 isoform 2 (UniProt P18754)
inactive: [1] 0.197 | [2] -0.129 | [3] 0.073 | [4] 0.055 | [5] -0.027 | [6] 0.13 | [7] 0.104 | [8] 0.111 | [9] 0.087 | [10] 0.053

RFFL (UniProt Q8WZ73)
inactive: [1] 0.173 | [2] 0.048 | [3] 0.038 | [4] -0.102 | [5] 0.274 | [6] 0.17 | [7] -0.267 | [8] -0.071 | [9] 0.032 | [10] -0.132

Looked up one by one from above, 2 records:
RFFL (UniProt Q8WZ73)
inactive: [1] 0.173 | [2] 0.048 | [3] 0.038 | [4] -0.102 | [5] 0.274 | [6] 0.17 | [7] -0.267 | [8] -0.071 | [9] 0.032 | [10] -0.132

RFESD isoform 2 (UniProt Q8TAC1)
inactive: [1] -0.042 | [2] -0.012 | [3] -0.075 | [4] 0 | [5] 0.014 | [6] 0.001 | [7] -0.028 | [8] -0.008 | [9] -0.174 | [10] -0.012

Remaining list, next part:

RNF121 (UniProt Q9H920)
inactive: [1] -0.06 | [2] -0.098 | [3] -0.02 | [4] 0.034 | [5] -0.008 | [6] 0.059 | [7] 0 | [8] 0.038 | [9] -0.072 | [10] -0.054

RIOK3 (UniProt O14730)
inactive: [1] 0.026 | [2] 0.021 | [3] 0.009 | [4] 0.014 | [5] -0.094 | [6] -0.012 | [7] -0.012 | [8] 0.011 | [9] -0.003 | [10] -0.003

RHOT1 isoform 3 (UniProt Q8IXI2)
inactive: [1] 0.035 | [2] 0 | [3] -0.012 | [4] 0.031 | [5] 0.029 | [6] 0 | [7] 0.025 | [8] -0.013 | [9] 0.021 | [10] 0.033

RBX1 (UniProt P62877)
inactive: [1] 0.06 | [2] -0.01 | [3] -0.047 | [4] 0.021 | [5] -0.041 | [6] 0.002 | [7] -0.111 | [8] -0.072 | [9] -0.152 | [10] 0.001

RNASEH2A (UniProt O75792)
inactive: [1] -0.023 | [2] -0.018 | [3] 0.022 | [4] 0.046 | [5] 0.142 | [6] -0.102 | [7] -0.024 | [8] -0.063 | [9] 0.046 | [10] 0.039

RHBDD1 (UniProt Q8TEB9)
inactive: [1] 0.088 | [2] 0.064 | [3] 0.043 | [4] 0.06 | [5] 0.021 | [6] -0.058 | [7] 0.068 | [8] 0.231 | [9] -0.074 | [10] -0.031

RELN (UniProt P78509)
inactive: [1] -0.024 | [2] 0.019 | [3] -0.038 | [4] -0.077 | [5] 0.095 | [6] -0.092 | [7] -0.045 | [8] -0.03 | [9] -0.009 | [10] 0.01

REEP6 (UniProt Q96HR9)
inactive: [1] -0.073 | [2] -0.069 | [3] 0.01 | [4] -0.007 | [5] -0.044 | [6] -0.138 | [7] -0.002 | [8] -0.097 | [9] 0.001 | [10] 0.078

RCCD1 (UniProt A6NED2)
inactive: [1] 0 | [2] -0.013 | [3] 0.028 | [4] 0.015 | [5] -0.008 | [6] 0.018 | [7] -0.033 | [8] 0.226 | [9] -0.02 | [10] 0.045

RNF220 (UniProt Q5VTB9)
inactive: [1] -0.01 | [2] -0.086 | [3] 0.008 | [4] 0.047 | [5] 0.008 | [6] -0.001 | [7] -0.001 | [8] -0.023 | [9] 0.038 | [10] 0.016

RNASEH2C (UniProt Q8TDP1)
inactive: [1] -0.013 | [2] -0.087 | [3] -0.01 | [4] 0.016 | [5] -0.003 | [6] 0.077 | [7] 0.08 | [8] 0.073 | [9] 0.003 | [10] 0.089

RIOK2 (UniProt Q9BVS4)
inactive: [1] 0.035 | [2] 0.006 | [3] -0.046 | [4] -0.021 | [5] 0.178 | [6] -0.001 | [7] -0.007 | [8] 0.056 | [9] 0.035 | [10] 0

REPS1 (UniProt Q96D71)
inactive: [1] 0.026 | [2] 0.054 | [3] 0.277 | [4] -0.046 | [5] 0.183 | [6] -0.049 | [7] -0.28 | [9] 0.031 | [10] -0.154

RIF1 (UniProt Q5UIP0)
inactive: [1] 0.198 | [2] -0.069 | [3] -0.021 | [5] 0.006 | [6] -0.155 | [7] 0.075 | [9] -0.13

RGS10 (UniProt O43665)
inactive: [1] -0.012 | [2] -0.02 | [3] -0.02 | [4] -0.041 | [5] -0.012 | [6] 0.048 | [7] 0.034 | [8] 0.02 | [9] 0.026 | [10] 0.016

RMND5A (UniProt Q9H871)
inactive: [1] 0.024 | [2] 0.029 | [3] -0.06 | [4] 0.005 | [5] 0.045 | [6] -0.008 | [7] 0.031 | [8] -0.041 | [9] -0.009 | [10] 0.043

RBM7 (UniProt Q9Y580)
inactive: [1] -0.307 | [2] -0.167 | [3] 0.018 | [5] 0.154 | [6] -0.024 | [7] -0.224 | [8] -0.002 | [9] 0.13

RNF20 (UniProt Q5VTR2)
inactive: [1] 0.065 | [2] -0.069 | [3] -0.007 | [4] 0.001 | [5] -0.07 | [7] 0.06 | [8] 0.02 | [9] -0.006 | [10] -0.021

RNF149 (UniProt Q8NC42)
inactive: [1] 0.019 | [2] 0.027 | [3] 0.025 | [4] -0.051 | [5] 0.081 | [6] -0.028 | [7] 0 | [8] -0.154 | [9] 0.024 | [10] -0.06

RBSN (UniProt Q9H1K0)
inactive: [1] 0.087 | [2] -0.022 | [3] 0.124 | [4] 0.103 | [6] -0.055 | [7] 0.261 | [9] -0.007 | [10] 0.051

RNF213 isoform 4 (UniProt Q63HN8)
inactive: [1] 0.205 | [2] 0.042 | [3] -0.061 | [4] -0.066 | [5] 0.142 | [6] 0.102 | [7] 0.039 | [8] -0.359 | [9] 0.118 | [10] 0.063

RIPK1 (UniProt Q13546)
inactive: [1] 0.101 | [2] -0.043 | [3] -0.002 | [4] -0.178 | [5] 0.109 | [6] 0.054 | [7] 0.135 | [8] 0.092 | [9] 0.094 | [10] 0.085

RCN2 isoform 2 (UniProt Q14257)
inactive: [1] -0.005 | [2] 0.048 | [3] 0.016 | [4] 0.002 | [5] 0.007 | [6] 0.007 | [7] -0.007 | [8] -0.003 | [9] 0.003 | [10] 0.013
